Patent publication US20040191815
For at least one entry, the source does not settle the construct or the ends of the probe. A negative result means that nothing was seen under these conditions. For some of these results: A weaker result is weaker than the reference pair of the same experiment.

Chains of the proteins cited; added tags and fusions are not shown. A line that says so, or that is headed by a name, gives the form on record, which may keep a tag or linker.
MafG homodimer, one chain, as listed by the source: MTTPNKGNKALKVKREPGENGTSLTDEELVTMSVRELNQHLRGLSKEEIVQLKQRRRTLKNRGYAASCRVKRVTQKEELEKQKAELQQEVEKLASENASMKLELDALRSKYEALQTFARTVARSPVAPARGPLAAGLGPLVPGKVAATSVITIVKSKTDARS

Key:
[1] = tested on: GATA-1; assay: SPR; details: 5' thiol on anchor strand (immobilized)
[2] = tested on: MafG homodimer; assay: SPR; details: 5' thiol on anchor strand (immobilized), variant of MARE 25

## TTTTTTTTTTTTTTTCGGAATAGTAATTACG / CGTAATTATCATTCCG [GATA mut]
[1]; same buffer, substantially no binding, variant of GATA reg
  binding result: no binding

## TTTTTTTTTTTTTTTCGGAATCAATGACTCATTGTTACTC (double strand) [MARE23]
[2]; Example 1, 300 mM NaCl, substantially no binding
  binding result: no binding
[2]; bonding strength stated as low, also N.D by GMSA
  binding result: binds more weakly

## TTTTTTTTTTTTTTTCGGAATGATAATTACG / CGTAATTATCATTCCG [GATA reg]
[1]; 20 mM Hepes, 300 mM NaCl, 0.2 mM ZnCl2, 0.005% Tween 20, pH 7.9, poly dIdC 100 ug/ml
  binding result: binds
